Laboratory results as given in patent publication US5229363A, “Cyclic hexapeptide compounds” (Merck & Co., Inc., priority 1991, dated 1993).
At least one peptide structure holds a part that was inferred or is arguable (an end, a ring closure or a residue). Positions of bridges follow the written chain, without caps; N, C: chain ends. Non-standard residues stand in square brackets, D forms with d. Residues, ends and D or L forms follow the SMILES beside them. *: point of attachment. Benzoyl(4-octyloxy) = CCCCCCCCOc1ccc(C(=O)*)cc1; hTyr = N[C@@H](CCc1ccc(O)cc1)C(=O)O; Orn = NCCC[C@H](N)C(=O)O

Experiments:
C. albicans = assay: agar dilution assay, yeast nitrogen base dextrose agar (MIC); type: cell-based, Candida albicans; details: 48 hours, lowest concentration showing no growth or less than three CFU/spot
C. tropicalis = assay: as above; type: cell-based, Candida tropicalis; details: strain MY 1012, 28° C., 48 hours, lowest concentration showing no growth or less than three CFU/spot

CCCCCCCCOc1ccc(C(=O)N[C@H]2CCCNC(=O)[C@@H]3CCCN3C(=O)[C@H]([C@@H](C)O)NC(=O)[C@H](CCc3ccc(O)cc3)NC(=O)[C@@H]3CCCN3C(=O)[C@H]([C@@H](C)O)NC2=O)cc1 [Compound B] ({Benzoyl(4-octyloxy)}-[Orn]TP[hTyr]TP; lactam 1-C)
4 µg/mL: minimum inhibitory concentration (MIC), C. albicans MY 1055 (C. albicans; strain MY 1055, 28° C.) | minimum inhibitory concentration (MIC), C. albicans MY 1208 (C. albicans; strain MY 1208, 28° C.) | minimum inhibitory concentration (MIC), C. tropicalis MY 1012 (C. tropicalis)
